Measurements published in the supplement of paper PMC6411743.
± gives the standard deviation of the averaged measurements. Only a part is listed here, and it is no random draw.

Amino acid sequences for entries named in this document (tags omitted). A change or cut given only in a name is not applied to a line headed by its entry.
UniProt Q9Y487, whole entry: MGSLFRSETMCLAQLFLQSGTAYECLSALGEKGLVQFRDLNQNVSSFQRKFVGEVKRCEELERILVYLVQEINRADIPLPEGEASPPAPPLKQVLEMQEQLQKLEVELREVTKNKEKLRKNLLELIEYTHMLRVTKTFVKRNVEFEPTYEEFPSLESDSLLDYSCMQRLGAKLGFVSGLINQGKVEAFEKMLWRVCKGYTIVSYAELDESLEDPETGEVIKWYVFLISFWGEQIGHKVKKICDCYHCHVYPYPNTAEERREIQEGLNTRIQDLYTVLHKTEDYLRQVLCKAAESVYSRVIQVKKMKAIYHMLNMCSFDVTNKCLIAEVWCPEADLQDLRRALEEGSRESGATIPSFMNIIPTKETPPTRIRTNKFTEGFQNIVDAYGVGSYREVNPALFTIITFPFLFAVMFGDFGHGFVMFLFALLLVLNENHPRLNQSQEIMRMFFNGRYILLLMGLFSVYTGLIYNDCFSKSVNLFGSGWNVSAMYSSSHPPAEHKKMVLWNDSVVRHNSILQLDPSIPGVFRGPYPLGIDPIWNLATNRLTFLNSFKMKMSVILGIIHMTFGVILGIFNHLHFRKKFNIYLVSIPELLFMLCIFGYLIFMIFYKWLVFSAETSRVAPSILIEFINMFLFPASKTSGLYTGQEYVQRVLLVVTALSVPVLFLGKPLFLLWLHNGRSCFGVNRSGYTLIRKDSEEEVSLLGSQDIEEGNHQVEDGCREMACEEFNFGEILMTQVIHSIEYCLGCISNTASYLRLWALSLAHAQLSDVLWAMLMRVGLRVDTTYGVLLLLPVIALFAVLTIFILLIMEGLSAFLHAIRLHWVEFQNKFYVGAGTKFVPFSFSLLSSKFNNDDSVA
UniProt Q9Y5W8: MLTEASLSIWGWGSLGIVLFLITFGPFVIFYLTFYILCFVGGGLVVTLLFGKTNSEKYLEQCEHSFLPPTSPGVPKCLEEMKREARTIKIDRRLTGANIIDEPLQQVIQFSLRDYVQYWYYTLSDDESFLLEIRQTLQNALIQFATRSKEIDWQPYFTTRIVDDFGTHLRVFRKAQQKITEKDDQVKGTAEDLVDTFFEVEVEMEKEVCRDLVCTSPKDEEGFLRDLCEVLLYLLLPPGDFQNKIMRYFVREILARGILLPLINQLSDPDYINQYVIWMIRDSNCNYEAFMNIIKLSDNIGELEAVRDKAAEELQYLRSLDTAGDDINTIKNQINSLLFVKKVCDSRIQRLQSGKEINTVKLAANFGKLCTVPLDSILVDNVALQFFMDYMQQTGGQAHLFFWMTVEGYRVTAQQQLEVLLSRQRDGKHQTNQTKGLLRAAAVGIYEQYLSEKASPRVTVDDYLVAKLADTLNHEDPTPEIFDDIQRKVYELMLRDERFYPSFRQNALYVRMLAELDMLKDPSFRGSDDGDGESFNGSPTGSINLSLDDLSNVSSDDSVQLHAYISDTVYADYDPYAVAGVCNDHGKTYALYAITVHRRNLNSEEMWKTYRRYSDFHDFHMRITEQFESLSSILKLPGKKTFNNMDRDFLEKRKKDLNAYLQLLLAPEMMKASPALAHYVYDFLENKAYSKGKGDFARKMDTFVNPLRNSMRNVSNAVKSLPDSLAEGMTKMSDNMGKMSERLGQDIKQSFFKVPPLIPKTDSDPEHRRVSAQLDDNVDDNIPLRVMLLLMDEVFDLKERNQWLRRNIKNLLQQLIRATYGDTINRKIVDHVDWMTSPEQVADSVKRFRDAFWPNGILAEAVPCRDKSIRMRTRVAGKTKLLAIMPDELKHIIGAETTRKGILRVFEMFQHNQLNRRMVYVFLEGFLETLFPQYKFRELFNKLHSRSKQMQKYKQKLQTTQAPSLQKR
UniProt Q9Y4E8: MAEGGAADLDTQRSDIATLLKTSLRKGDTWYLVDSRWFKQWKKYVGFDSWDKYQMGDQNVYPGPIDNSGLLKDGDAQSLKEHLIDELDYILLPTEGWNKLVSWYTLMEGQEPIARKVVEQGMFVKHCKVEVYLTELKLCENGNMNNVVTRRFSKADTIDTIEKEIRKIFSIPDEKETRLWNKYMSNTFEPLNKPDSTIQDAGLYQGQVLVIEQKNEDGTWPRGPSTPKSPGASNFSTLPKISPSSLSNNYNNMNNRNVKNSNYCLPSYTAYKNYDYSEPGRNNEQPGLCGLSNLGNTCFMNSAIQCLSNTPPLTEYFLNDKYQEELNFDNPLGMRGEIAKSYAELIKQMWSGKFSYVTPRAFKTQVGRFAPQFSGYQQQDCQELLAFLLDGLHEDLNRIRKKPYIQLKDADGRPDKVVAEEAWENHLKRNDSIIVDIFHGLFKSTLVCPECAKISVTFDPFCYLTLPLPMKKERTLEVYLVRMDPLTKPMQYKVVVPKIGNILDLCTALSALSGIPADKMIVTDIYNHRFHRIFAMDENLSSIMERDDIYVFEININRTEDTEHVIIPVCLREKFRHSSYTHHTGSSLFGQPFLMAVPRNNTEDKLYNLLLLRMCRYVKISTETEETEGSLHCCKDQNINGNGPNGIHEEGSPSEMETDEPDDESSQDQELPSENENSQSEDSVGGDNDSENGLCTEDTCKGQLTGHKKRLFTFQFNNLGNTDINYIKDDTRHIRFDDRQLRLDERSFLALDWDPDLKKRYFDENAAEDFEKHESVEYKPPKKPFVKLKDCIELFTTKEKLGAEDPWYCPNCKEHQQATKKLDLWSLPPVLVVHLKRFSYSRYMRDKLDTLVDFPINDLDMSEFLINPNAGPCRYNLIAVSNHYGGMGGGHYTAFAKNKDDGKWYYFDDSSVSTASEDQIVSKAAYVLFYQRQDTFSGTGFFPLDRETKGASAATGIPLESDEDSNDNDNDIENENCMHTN
UniProt Q9Y4E6, whole entry: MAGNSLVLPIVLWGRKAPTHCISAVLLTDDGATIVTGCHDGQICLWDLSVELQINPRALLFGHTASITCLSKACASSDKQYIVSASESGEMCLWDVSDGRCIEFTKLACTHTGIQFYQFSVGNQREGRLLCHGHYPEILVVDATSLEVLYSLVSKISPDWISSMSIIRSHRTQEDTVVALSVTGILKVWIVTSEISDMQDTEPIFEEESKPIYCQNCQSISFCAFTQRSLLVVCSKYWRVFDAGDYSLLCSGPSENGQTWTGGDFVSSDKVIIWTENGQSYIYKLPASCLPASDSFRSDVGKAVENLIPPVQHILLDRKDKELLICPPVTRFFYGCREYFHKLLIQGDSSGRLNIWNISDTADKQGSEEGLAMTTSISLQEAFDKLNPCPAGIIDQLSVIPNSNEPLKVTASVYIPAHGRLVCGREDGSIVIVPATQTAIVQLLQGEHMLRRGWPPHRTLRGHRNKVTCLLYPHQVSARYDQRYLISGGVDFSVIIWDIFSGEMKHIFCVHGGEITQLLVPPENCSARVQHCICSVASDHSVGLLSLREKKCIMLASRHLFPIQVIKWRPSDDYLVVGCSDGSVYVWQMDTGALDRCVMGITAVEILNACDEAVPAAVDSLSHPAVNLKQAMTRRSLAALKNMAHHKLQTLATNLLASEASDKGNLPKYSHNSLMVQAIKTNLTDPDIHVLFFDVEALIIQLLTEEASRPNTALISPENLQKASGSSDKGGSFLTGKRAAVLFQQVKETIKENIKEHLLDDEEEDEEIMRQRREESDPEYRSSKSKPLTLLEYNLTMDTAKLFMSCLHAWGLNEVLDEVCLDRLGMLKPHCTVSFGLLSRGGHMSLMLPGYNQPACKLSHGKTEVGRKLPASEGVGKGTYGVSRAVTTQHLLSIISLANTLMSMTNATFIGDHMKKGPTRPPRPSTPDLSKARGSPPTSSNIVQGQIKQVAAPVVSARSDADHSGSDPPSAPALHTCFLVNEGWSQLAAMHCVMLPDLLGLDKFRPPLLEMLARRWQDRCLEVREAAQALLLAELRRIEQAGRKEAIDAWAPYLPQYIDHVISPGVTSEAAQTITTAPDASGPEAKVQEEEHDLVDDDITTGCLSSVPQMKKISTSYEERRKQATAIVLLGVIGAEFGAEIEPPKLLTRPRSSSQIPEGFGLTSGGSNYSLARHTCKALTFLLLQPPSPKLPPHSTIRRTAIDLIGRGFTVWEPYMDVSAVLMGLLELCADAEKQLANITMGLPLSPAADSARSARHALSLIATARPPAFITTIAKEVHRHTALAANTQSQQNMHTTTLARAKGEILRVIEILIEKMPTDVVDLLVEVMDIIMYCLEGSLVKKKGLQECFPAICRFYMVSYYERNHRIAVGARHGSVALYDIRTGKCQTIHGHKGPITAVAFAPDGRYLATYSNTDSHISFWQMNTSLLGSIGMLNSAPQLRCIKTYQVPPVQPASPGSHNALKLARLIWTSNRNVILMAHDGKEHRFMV
UniProt Q9Y448: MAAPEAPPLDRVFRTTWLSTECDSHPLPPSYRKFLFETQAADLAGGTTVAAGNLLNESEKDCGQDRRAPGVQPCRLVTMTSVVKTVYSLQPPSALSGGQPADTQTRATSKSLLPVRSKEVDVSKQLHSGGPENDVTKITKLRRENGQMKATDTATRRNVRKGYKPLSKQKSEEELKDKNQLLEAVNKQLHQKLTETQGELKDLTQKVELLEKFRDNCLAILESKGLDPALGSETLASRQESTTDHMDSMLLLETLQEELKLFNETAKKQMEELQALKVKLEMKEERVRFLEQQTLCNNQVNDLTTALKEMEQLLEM
UniProt Q9Y5K5, whole entry: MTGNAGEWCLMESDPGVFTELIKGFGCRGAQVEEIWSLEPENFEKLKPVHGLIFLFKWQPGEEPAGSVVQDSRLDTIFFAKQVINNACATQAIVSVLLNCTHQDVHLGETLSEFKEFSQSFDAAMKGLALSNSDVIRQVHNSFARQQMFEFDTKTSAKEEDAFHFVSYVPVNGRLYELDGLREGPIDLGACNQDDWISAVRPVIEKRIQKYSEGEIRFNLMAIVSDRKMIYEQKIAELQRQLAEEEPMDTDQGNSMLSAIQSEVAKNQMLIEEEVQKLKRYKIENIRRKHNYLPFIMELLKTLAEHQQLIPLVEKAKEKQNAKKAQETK
UniProt Q9Y5Z7: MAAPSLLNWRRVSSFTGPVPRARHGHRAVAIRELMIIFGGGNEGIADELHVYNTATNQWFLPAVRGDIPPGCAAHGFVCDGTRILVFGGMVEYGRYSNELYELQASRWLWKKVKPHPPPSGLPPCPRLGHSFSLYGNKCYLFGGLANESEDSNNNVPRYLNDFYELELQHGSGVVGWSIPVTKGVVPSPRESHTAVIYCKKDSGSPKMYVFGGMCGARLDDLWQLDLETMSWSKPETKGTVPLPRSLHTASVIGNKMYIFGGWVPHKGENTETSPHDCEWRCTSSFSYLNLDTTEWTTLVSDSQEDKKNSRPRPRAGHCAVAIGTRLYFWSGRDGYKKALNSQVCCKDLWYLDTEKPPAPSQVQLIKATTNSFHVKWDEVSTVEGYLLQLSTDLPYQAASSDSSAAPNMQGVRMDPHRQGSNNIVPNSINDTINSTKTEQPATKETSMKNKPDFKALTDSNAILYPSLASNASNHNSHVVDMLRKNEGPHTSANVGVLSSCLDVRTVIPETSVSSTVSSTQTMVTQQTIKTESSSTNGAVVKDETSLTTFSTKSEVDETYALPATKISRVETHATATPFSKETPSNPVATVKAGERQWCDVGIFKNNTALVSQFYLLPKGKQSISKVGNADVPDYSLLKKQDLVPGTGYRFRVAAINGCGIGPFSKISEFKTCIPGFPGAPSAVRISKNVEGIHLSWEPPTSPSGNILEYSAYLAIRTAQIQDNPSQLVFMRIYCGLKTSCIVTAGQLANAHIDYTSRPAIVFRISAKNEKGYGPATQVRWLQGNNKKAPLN
UniProt Q9Y679: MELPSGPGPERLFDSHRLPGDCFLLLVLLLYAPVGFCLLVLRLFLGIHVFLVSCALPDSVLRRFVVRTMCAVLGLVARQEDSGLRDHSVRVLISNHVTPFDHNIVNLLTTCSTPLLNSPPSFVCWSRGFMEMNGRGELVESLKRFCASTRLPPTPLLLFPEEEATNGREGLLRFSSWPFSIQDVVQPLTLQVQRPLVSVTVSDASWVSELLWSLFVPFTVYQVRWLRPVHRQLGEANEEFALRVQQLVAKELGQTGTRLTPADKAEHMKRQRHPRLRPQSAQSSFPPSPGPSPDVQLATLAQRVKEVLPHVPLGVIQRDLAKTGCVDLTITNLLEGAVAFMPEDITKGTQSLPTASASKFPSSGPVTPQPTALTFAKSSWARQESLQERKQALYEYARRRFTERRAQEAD
UniProt Q9Y697: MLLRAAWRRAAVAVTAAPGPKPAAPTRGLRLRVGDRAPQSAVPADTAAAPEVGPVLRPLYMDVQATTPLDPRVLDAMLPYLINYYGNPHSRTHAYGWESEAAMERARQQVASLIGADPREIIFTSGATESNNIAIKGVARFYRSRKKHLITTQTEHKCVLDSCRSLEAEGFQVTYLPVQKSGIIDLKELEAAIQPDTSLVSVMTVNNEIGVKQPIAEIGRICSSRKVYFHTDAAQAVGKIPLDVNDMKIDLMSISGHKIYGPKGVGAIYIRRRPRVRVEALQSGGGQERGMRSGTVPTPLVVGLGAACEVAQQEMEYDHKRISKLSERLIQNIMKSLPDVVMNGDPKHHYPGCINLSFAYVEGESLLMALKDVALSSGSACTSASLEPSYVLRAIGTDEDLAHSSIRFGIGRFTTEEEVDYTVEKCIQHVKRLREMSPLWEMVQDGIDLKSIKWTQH

Compound: Nc1ncnc2c1ncn2[C@@H]1O[C@H](COP(=O)(O)OP(=O)(O)NP(=O)(O)O)[C@@H](O)[C@H]1O [adenylyl imidodiphosphate]
Assay: NP40-soluble protein abundance relative to vehicle (solubility fold change) (ratio); higher = more soluble protein in presence of AMP-PNP
How it was run: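 Across three independent experiments, values are fold changes against the detergent-processed vehicle for each replicate, based on vsn-normalised intensities. The samples were Jurkat crude lysate treated with eight concentrations (0.1 to 10 mM) for 10 min at room temperature and then 3 min at 37 °C. Lysate was solubilised with 0.8% NP40 and benzonase, ultracentrifuged, and the supernatant analysed by TMT-labelled LC-MS/MS.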

Target	NP40-soluble protein abundance (concentration: 1mM)	NP40-soluble protein abundance (concentration: 2mM)	NP40-soluble protein abundance (concentration: 4mM)	NP40-soluble protein abundance (concentration: 6mM)	NP40-soluble protein abundance (concentration: 8mM)	NP40-soluble protein abundance (concentration: 10mM)
UniProt Q9Y5P4 and related entries	0.982 ± 0.019	0.98 ± 0.046	0.962 ± 0.013	0.975 ± 0.029	0.966 ± 0.021	0.9787 ± 0.0092
ATP6V0A2 (UniProt Q9Y487)	0.981 ± 0.031	0.97 ± 0.021	1.01 ± 0.028	0.982 ± 0.021	0.972 ± 0.013	0.96 ± 0.016
TLN1 (UniProt Q9Y490)	1 ± 0.014	1.03 ± 0.056	0.9877 ± 0.0052	0.989 ± 0.018	0.958 ± 0.013	0.987 ± 0.013
AFG3L2 (UniProt Q9Y4W6)	1.03 ± 0.036	1 ± 0.11	1.02 ± 0.053	1.01 ± 0.059	1.01 ± 0.058	1.01 ± 0.077
ARFGEF1 (UniProt Q9Y6D6)	0.991 ± 0.018	0.944 ± 0.013	0.9557 ± 0.0052	0.93 ± 0.025	0.926 ± 0.03	0.921 ± 0.013
UniProt Q9Y3U8	1.06 ± 0.014	1.03 ± 0.014	1.047 ± 0.0097	0.992 ± 0.047	0.884 ± 0.002	1.116 ± 0.008
SUPT16H (UniProt Q9Y5B9)	1.03 ± 0.016	1.01 ± 0.023	1.1 ± 0.049	1.24 ± 0.053	1.33 ± 0.055	1.46 ± 0.12
ARFGEF2 (UniProt Q9Y6D5)	1.01 ± 0.028	0.987 ± 0.039	0.995 ± 0.015	0.957 ± 0.044	0.93 ± 0.036	0.923 ± 0.026
DDX49 (UniProt Q9Y6V7)	1.09 ± 0.076	1.13 ± 0.092	1.15 ± 0.12	1.13 ± 0.1	1.15 ± 0.12	1.24 ± 0.21
UniProt Q9Y5W8 and related entries	0.981 ± 0.016	0.9806 ± 0.0092	0.987 ± 0.013	0.989 ± 0.035	0.9895 ± 0.0085	0.991 ± 0.018
SPIN1 (UniProt Q9Y657)	1.07 ± 0.048	1.09 ± 0.056	1.09 ± 0.056	1.16 ± 0.15	1.17 ± 0.09	1.2 ± 0.12
UniProt Q9Y4E8 and related entries	0.967 ± 0.013	0.963 ± 0.032	1.02 ± 0.041	1 ± 0.048	0.993 ± 0.065	1.01 ± 0.027
UniProt Q9Y5Y5 and related entries	0.967 ± 0.051	0.97 ± 0.05	0.9611 ± 0.0026	1.04 ± 0.024	1.03 ± 0.032	1.02 ± 0.052
ATP6V1D (UniProt Q9Y5K8)	0.981 ± 0.025	1.02 ± 0.077	0.973 ± 0.026	0.966 ± 0.03	0.966 ± 0.019	0.989 ± 0.07
UniProt Q9Y570 and related entries	1.01 ± 0.02	1.04 ± 0.058	1.02 ± 0.031	1.01 ± 0.038	0.967 ± 0.029	1 ± 0.037
UniProt Q9Y520 and related entries	1.1 ± 0.013	1.2 ± 0.092	1.2 ± 0.05	1.25 ± 0.12	1.29 ± 0.14	1.41 ± 0.17
UniProt Q9Y4E6 and related entries	0.924 ± 0.045	0.946 ± 0.033	0.95 ± 0.019	0.935 ± 0.016	0.931 ± 0.034	0.912 ± 0.068
UniProt Q9Y448 and related entries	0.998 ± 0.035	1.06 ± 0.065	0.981 ± 0.07	0.958 ± 0.014	0.937 ± 0.017	0.964 ± 0.042
CAPN7 (UniProt Q9Y6W3)	1.02 ± 0.032	1 ± 0.053	1.03 ± 0.022	0.976 ± 0.011	0.981 ± 0.022	0.99 ± 0.043
UniProt Q9Y5K5 and related entries	0.964 ± 0.016	0.959 ± 0.024	0.947 ± 0.026	0.949 ± 0.012	0.968 ± 0.0098	0.958 ± 0.025
UniProt Q9Y5S9 and related entries	0.9846 ± 0.0015	0.997 ± 0.059	0.924 ± 0.033	0.961 ± 0.031	0.919 ± 0.025	0.906 ± 0.011
TLN2 (UniProt Q9Y4G6)	1.02 ± 0.047	1.06 ± 0.078	1.03 ± 0.025	1.02 ± 0.033	0.963 ± 0.016	1.03 ± 0.015
UniProt Q9Y6X9 and related entries	1.1 ± 0.051	1.11 ± 0.017	1.1 ± 0.017	1.09 ± 0.02	1.101 ± 0.0085	1.14 ± 0.034
BOLA1 (UniProt Q9Y3E2)	0.978 ± 0.014	0.965 ± 0.028	0.9709 ± 0.0074	0.98 ± 0.02	0.967 ± 0.01	0.99 ± 0.016
HCFC2 (UniProt Q9Y5Z7)	1.01 ± 0.014	0.983 ± 0.036	1.04 ± 0.02	1.02 ± 0.031	1.03 ± 0.014	1.03 ± 0.023
UniProt Q9Y3V2 and related entries	0.992 ± 0.033	1.014 ± 0.01	0.982 ± 0.014	0.978 ± 0.05	0.992 ± 0.023	0.976 ± 0.041
UniProt Q9Y679 and related entries	0.983 ± 0.034	0.923 ± 0.081	1 ± 0.015	0.991 ± 0.052	1.03 ± 0.035	0.983 ± 0.032
UniProt Q9Y678	1.01 ± 0.016	0.955 ± 0.067	0.997 ± 0.013	0.955 ± 0.03	0.953 ± 0.026	0.936 ± 0.039
UniProt Q9Y697 and related entries	0.998 ± 0.046	0.973 ± 0.016	1.02 ± 0.026	1.05 ± 0.063	1.05 ± 0.084	1.03 ± 0.066

Some of the entries so far, bar-delimited:
Target | NP40-soluble protein abundance (concentration: 1mM) | NP40-soluble protein abundance (concentration: 2mM) | NP40-soluble protein abundance (concentration: 4mM) | NP40-soluble protein abundance (concentration: 6mM) | NP40-soluble protein abundance (concentration: 8mM) | NP40-soluble protein abundance (concentration: 10mM)
BOLA1 (UniProt Q9Y3E2) | 0.978 ± 0.014 | 0.965 ± 0.028 | 0.9709 ± 0.0074 | 0.98 ± 0.02 | 0.967 ± 0.01 | 0.99 ± 0.016
HCFC2 (UniProt Q9Y5Z7) | 1.01 ± 0.014 | 0.983 ± 0.036 | 1.04 ± 0.02 | 1.02 ± 0.031 | 1.03 ± 0.014 | 1.03 ± 0.023
